Results are given in words; binding and its absence hold for the method and conditions named. Binding seen in cells or lysates may run through a third protein. Some binding calls cover weakened binding; strength is not graded here.

Sequences of proteins named here, by UniProt entry; tags and fusion partners are left off.
UniProt Q92466: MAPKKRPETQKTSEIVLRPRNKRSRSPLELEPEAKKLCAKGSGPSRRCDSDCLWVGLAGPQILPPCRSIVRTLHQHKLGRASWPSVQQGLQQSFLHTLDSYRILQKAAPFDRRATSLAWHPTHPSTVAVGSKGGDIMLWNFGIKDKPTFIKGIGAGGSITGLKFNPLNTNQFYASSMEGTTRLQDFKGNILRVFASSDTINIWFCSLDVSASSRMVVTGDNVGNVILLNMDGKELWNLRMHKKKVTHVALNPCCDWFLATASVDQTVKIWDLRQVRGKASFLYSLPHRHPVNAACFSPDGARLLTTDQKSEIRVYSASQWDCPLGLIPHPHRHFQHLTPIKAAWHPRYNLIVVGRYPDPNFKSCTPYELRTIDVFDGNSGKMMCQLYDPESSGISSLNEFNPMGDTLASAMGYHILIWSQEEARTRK
UniProt Q92905: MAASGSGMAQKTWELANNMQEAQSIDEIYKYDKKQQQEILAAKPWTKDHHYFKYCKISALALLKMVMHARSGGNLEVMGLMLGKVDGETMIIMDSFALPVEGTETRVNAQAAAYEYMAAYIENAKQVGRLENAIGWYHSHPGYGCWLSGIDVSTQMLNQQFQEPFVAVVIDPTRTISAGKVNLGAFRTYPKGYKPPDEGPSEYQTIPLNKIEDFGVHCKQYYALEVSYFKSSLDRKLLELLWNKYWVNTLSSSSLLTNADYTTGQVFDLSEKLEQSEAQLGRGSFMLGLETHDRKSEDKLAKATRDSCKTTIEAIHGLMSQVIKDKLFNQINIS
UniProt Q13619: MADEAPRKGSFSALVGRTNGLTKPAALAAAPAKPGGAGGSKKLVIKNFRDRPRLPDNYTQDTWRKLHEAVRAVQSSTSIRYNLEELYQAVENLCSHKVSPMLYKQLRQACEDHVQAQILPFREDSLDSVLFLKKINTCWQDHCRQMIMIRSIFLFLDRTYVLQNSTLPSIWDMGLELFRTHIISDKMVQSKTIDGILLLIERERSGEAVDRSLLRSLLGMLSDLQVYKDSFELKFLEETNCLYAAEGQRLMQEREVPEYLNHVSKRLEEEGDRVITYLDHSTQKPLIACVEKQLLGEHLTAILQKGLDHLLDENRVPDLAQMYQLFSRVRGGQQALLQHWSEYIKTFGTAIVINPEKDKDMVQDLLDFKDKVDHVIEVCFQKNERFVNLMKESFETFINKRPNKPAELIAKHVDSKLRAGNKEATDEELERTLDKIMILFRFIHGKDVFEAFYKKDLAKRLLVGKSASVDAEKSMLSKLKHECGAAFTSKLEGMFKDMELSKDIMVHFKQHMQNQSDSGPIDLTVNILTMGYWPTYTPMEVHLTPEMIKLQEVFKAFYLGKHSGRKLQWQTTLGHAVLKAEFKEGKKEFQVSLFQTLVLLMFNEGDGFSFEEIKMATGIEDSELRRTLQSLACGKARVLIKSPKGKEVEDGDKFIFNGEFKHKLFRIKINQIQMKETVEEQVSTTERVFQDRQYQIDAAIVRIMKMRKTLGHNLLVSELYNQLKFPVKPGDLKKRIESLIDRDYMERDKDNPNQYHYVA
UniProt Q16531: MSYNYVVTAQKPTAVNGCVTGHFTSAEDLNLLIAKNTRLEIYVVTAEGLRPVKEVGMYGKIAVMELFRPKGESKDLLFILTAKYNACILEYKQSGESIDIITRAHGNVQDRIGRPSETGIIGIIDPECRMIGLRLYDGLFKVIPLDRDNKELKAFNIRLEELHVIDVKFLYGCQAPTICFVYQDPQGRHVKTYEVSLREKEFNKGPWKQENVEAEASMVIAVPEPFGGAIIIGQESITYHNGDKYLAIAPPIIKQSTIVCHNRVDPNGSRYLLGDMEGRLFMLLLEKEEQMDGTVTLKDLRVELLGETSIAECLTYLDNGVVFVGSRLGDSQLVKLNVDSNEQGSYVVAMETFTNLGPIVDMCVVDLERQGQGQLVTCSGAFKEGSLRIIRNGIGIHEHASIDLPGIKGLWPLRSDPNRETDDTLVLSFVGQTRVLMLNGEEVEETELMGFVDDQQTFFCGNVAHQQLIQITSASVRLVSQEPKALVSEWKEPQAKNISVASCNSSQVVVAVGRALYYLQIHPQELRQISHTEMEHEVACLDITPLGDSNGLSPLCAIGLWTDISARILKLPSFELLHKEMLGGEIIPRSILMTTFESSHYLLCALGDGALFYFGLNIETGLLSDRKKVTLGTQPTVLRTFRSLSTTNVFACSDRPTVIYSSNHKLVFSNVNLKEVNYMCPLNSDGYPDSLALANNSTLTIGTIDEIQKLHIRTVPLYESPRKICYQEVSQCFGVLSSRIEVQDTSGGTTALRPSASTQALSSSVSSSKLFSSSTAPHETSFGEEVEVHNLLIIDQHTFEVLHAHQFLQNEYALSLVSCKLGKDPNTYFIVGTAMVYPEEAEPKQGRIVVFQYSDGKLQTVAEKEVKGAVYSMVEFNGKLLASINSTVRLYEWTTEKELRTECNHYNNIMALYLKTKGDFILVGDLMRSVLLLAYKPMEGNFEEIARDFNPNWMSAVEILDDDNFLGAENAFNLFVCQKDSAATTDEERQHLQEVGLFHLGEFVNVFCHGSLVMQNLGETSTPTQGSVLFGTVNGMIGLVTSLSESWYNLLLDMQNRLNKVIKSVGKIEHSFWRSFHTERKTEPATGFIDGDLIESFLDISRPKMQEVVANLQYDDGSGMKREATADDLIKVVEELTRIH

The test concerns the target DDB2-FLAG-HA (DNA-Damage Binding protein 2 fused to a FLAG-HA tag) (UniProt Q92466). Put plainly: co-IP; FLAG-affinity purification of DDB2-FLAG-HA from cleared HeLa S3 lysate (40 mM Tris-HCl pH 8, 200 mM NaCl, 10% glycerol, 2 mM EDTA, 0.4% NP40) on M2 anti-FLAG agarose beads, 4 h at 4°C; eluted with excess FLAG peptide; partners detected by immuno-blotting.
For the substance CSN5 (from UniProt Q92905 1-334), the binding result is “binds”. To “Cullin4A (from UniProt Q13619 1-759) (other; other documents disagree on this pair)” belongs “binds”; to DDB1 (from UniProt Q16531 1-1140), “binds”.
